Assay results: publication PMC8170675, “Allostery through DNA drives phenotype switching”
For at least one entry, the source does not settle the construct or the ends of the probe. At least one verdict rests on a figure or table, not on a statement of the authors. Protein sequences can lack the tags named with them.

Target: T1, ComK (Bacillus subtilis) (UniProt P40396)
T1 sequence: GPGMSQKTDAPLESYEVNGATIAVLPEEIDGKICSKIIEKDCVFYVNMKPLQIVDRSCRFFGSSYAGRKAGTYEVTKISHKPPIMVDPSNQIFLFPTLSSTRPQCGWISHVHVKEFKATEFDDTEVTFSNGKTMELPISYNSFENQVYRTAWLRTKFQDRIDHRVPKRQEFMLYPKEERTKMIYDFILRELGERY
Assay: smFRET
Details: amino-C6-dT/dA at dye sites, smFRET: room temperature, 50 mM L-Arg, 20 mM DTT, recombinant protein, label: AlexaFluor 488 / AlexaFluor 594

Sequence | binding result (Hill exponent in figure only) | binding result (value cut off in the material)
GATGTGCGGAGAAAAGGCCGTTTTTATATGTGAAAAGGCCGTTTTTACCAATAGATC (double strand) [addAB 2 boxes] | binds | 
GATGTGCGGAGATAATCAGCTTTTTATATGTGAAAAGGCCGTTTTTACCAATAGATC (double strand) [addAB2: box 2 labelled] |  | binds
GATGTGCGGAGAAAAGGCCGTTTTTATATGTGAAAAGGCCGTTTTTATATGTGAAAAGGCCGTTTTTATATGTGAAAAGGCCGTTTTTACCAATAGATC (double strand) [addAB 4 boxes] | binds | 
GATGTGCGGAGAAAAGGCCGTTTTTATATGTGAAAAGGCCGTTTTTATATGTGAAAAGGCCGTTTTTACCAATAGATC (double strand) [addAB 3 boxes] | binds | 
